Experimental data reported in the supplement of paper PMC11098740.
This is one part of the list. Single values are uncertain, as repeats are few or missing.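 Pooled together, 41 HAP1 clones carry intronic fluorescent tags on 61 cancer-associated proteins, and each clone is recognized by its imaging pattern. Measurements are benchmarked against DMSO-treated control wells. dBET6, a BRD4 degrader, served as the positive control.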

The chains behind the UniProt entries cited, without tags or fusion partners.
UniProt O14980, whole entry: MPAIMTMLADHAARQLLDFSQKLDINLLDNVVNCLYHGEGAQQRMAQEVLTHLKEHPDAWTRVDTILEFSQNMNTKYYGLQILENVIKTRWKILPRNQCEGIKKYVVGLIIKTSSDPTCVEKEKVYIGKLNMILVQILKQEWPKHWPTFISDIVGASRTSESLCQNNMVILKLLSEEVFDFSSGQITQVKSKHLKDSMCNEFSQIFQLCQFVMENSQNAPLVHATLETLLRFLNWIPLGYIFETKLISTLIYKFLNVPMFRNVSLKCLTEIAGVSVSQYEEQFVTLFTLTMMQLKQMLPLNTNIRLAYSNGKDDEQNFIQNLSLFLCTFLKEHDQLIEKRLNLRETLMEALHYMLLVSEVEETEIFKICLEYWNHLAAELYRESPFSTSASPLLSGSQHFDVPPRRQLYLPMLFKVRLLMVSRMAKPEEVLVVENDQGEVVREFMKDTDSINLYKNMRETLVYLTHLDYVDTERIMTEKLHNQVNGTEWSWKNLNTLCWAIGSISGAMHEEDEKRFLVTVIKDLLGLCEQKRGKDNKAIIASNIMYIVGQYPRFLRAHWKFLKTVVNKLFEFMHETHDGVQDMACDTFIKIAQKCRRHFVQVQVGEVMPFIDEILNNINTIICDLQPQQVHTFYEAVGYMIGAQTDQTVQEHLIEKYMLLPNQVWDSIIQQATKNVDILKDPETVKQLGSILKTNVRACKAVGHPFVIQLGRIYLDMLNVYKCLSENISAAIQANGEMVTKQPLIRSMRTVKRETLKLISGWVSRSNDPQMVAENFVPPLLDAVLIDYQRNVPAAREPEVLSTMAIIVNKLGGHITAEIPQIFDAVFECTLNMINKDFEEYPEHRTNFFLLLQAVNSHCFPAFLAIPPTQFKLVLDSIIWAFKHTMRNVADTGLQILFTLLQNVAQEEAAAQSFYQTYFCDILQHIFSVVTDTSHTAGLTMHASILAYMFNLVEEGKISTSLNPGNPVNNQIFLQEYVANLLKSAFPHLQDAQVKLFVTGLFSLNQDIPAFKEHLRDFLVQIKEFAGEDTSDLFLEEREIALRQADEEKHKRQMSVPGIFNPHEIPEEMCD

These compounds were tested against XPO1 (intron 15 mScarlet tag, HAP1) (UniProt O14980) (assay: XPO1 fluorescence intensity change vs DMSO (log2 fold change); higher = more XPO1 protein). Conditions: 6 h.

Row | SMILES | XPO1 fluorescence intensity change (log2)
1 | CN1C(=O)C(Cc2c[nH]c3ccccc23)NC1=S (stereo not drawn) [necrostatin-1] (1 µM) | 0.0224
2 | COc1ccc(Cl)cc1C(=O)N1CCN(c2ccccc2F)CC1 (10 µM) | -0.0343
3 | c1csc(-c2nnc(Sc3ccc4nccnc4n3)o2)c1 (10 µM) | 0.123
4 | O=C(/C=C/c1cc(Br)ccc1F)c1ccc(O)c(CCCl)c1 (10 µM) | -0.126
5 | CC(C)(C)c1csc(NC(=O)c2ccc(S(=O)(=O)C(F)F)cc2)n1 (10 µM) | -0.17
6 | CN(C)c1ccc(C(=NC(=O)c2cccc(S(=O)(=O)N3CCCCC3)c2)c2ccc(N(C)C)cc2)cc1 (0.1 µM) | -0.0634
7 | CCOC(CCl)/S(=N\S(=O)(=O)c1ccc(C)cc1)c1ccccc1[N+](=O)[O-] (stereo not drawn) (10 µM) | -0.0831
8 | Cc1cn2c(CC(=O)Nc3ccc(C(F)(F)F)cc3)csc2n1 (10 µM) | -0.00665
9 | O=C(Nc1ccc(F)cc1)c1nnc(CCl)s1 (10 µM) | -0.000826
10 | CCCCn1c(=O)[nH]c(=O)c2c1nc(CCl)n2C (10 µM) | 0.166
11 | O=C(NCCc1nnc2ccccn12)c1ccc(-c2ccccc2F)s1 (10 µM) | -0.00836
12 | COc1ccc(C)cc1NC(=O)c1ccc(-n2ccnc2)nc1 (10 µM) | -0.0151
13 | Cc1ccc2sc(/C=C/c3cccnc3)nc2c1 (10 µM) | -0.0992
14 | NC(=O)Nc1cc(-c2cccc(F)c2)sc1C(=O)N[C@H]1CCCNC1 (20 µM) | 0.208
15 | O=C(Nc1ccc(-c2nc3ccccc3[nH]2)cc1)C1CCC1 (10 µM) | 0.0837
16 | CC(=O)c1cccc(NC(=O)C(C)N(C)Cc2ccccc2N2CCCCC2)c1 (stereo not drawn) (10 µM) | -0.136
17 | O=C(Nc1ccc(-n2ccnc2)c(F)c1)C1CC(c2ccccc2)=NO1 (stereo not drawn) (10 µM) | 0.0554
18 | Nc1nccnc1C(=O)Nc1ccc(SC2CCCC2)cc1 (1 µM) | -0.091
19 | CNc1nc(-c2ccc3c(N)n[nH]c3c2)cc(N2C[C@@H](C(=O)NC3CCCCC3)CC[C@H]2C)n1 (20 µM) | -0.0633
20 | COC(=O)c1c(NC(=O)CCCl)sc2c1CCCC2 (10 µM) | -0.228

Row | SMILES | XPO1 fluorescence intensity change (log2)
21 | O=C(Nc1ccc(Oc2cccc(F)c2)cc1)N1CCc2ccccc2C1 (10 µM) | -0.0139
22 | Cc1nc2ccc(C(=O)N(C)Cc3ccccc3OC(F)(F)F)cc2nc1C (10 µM) | 0.0452
23 | O=C(Oc1c(CN2CCOCC2)cc(Cl)c2cccnc12)c1ccccc1 (10 µM) | 0.256
24 | CCCCN1C(=O)C(O)(c2c(C)nn(CCO)c2N)c2ccccc21 (stereo not drawn) (1 µM) | -0.0737
25 | O=C(NCCc1cccc(Cl)c1)C1CCCN(C(=O)c2ccc(F)cc2)C1 (stereo not drawn) (10 µM) | 0.0681
26 | CCn1c(=O)c2ccccc2n2c(CCl)nnc12 (10 µM) | 0.119
27 | Cc1onc(-c2c(Cl)cccc2Cl)c1C(=O)N1CCN(c2cccc(C(F)(F)F)c2)CC1 (1 µM) | -0.0672
28 | O=C1OCC(c2ccc3c(c2)OCCCO3)=C1c1ccc(Cl)c(Cl)c1 (10 µM) | 0.35
29 | Cn1c(=O)n(C)c2cc(NC(=O)c3ccc4cc[nH]c4c3)ccc21 (10 µM) | 0.057
30 | COc1ccc(CNC(C)c2ccc(Cl)c(Cl)c2)cc1O (stereo not drawn) (10 µM) | 0.0891
31 | CCCc1cc(=O)n2nc(Br)sc2n1 (10 µM) | -0.239
32 | Cc1nc(C)c(C(=O)NC(C)c2ccc(-c3ccccc3)cc2)s1 (stereo not drawn) (10 µM) | 0.0701
33 | Nc1nc(CCl)nc(Nc2ccc(F)cc2)n1 (10 µM) | 0.237
34 | Cc1ncc(CN2CCC(c3nc4cc(Cl)ccc4o3)CC2)s1 (1 µM) | -0.0426
35 | COc1ccc(S(=O)(=O)Nc2cccc(-n3cccn3)c2)cc1 (10 µM) | 0.00727
36 | O=C(Nc1nc(-c2ccccn2)cs1)c1cncc(Br)c1 (10 µM) | -0.145
37 | Cc1occc1C(=O)Nc1nc2ccc(S(C)(=O)=O)cc2s1 (10 µM) | 0.00301
38 | CCOc1ccccc1C1CC(=O)Nc2cc3c(cc21)OCO3 (stereo not drawn) (10 µM) | -0.0933
39 | COCc1ccc(C(=O)Nc2cc(C)ccn2)cc1 (1 µM) | 0.104

An excerpt of these results, in markdown.

| Row | SMILES | XPO1 fluorescence intensity change (log2) |
| --- | --- | --- |
| 16 | CC(=O)c1cccc(NC(=O)C(C)N(C)Cc2ccccc2N2CCCCC2)c1 (stereo not drawn) (10 µM) | -0.136 |
| 17 | O=C(Nc1ccc(-n2ccnc2)c(F)c1)C1CC(c2ccccc2)=NO1 (stereo not drawn) (10 µM) | 0.0554 |
| 18 | Nc1nccnc1C(=O)Nc1ccc(SC2CCCC2)cc1 (1 µM) | -0.091 |
| 19 | CNc1nc(-c2ccc3c(N)n[nH]c3c2)cc(N2C[C@@H](C(=O)NC3CCCCC3)CC[C@H]2C)n1 (20 µM) | -0.0633 |
| 20 | COC(=O)c1c(NC(=O)CCCl)sc2c1CCCC2 (10 µM) | -0.228 |
| 21 | O=C(Nc1ccc(Oc2cccc(F)c2)cc1)N1CCc2ccccc2C1 (10 µM) | -0.0139 |
| 22 | Cc1nc2ccc(C(=O)N(C)Cc3ccccc3OC(F)(F)F)cc2nc1C (10 µM) | 0.0452 |
| 23 | O=C(Oc1c(CN2CCOCC2)cc(Cl)c2cccnc12)c1ccccc1 (10 µM) | 0.256 |
| 24 | CCCCN1C(=O)C(O)(c2c(C)nn(CCO)c2N)c2ccccc21 (stereo not drawn) (1 µM) | -0.0737 |
| 25 | O=C(NCCc1cccc(Cl)c1)C1CCCN(C(=O)c2ccc(F)cc2)C1 (stereo not drawn) (10 µM) | 0.0681 |
| 26 | CCn1c(=O)c2ccccc2n2c(CCl)nnc12 (10 µM) | 0.119 |
| 27 | Cc1onc(-c2c(Cl)cccc2Cl)c1C(=O)N1CCN(c2cccc(C(F)(F)F)c2)CC1 (1 µM) | -0.0672 |
| 28 | O=C1OCC(c2ccc3c(c2)OCCCO3)=C1c1ccc(Cl)c(Cl)c1 (10 µM) | 0.35 |
| 29 | Cn1c(=O)n(C)c2cc(NC(=O)c3ccc4cc[nH]c4c3)ccc21 (10 µM) | 0.057 |
| 30 | COc1ccc(CNC(C)c2ccc(Cl)c(Cl)c2)cc1O (stereo not drawn) (10 µM) | 0.0891 |
| 31 | CCCc1cc(=O)n2nc(Br)sc2n1 (10 µM) | -0.239 |

Each compound was assayed against BRD4 (intron 10 mScarlet tag, HAP1) (UniProt O60885) (assay: BRD4 median nuclear fluorescence intensity change vs DMSO (log2 fold change); higher = more BRD4 protein). Conditions: 6 h.

Row | SMILES | BRD4 median nuclear fluorescence intensity change (log2)
40 | CN1C(=O)C(Cc2c[nH]c3ccccc23)NC1=S (stereo not drawn) [necrostatin-1] (1 µM) | 0.119
41 | COc1ccc(Cl)cc1C(=O)N1CCN(c2ccccc2F)CC1 (10 µM) | 0.0559
42 | c1csc(-c2nnc(Sc3ccc4nccnc4n3)o2)c1 (10 µM) | 0.116
43 | O=C(/C=C/c1cc(Br)ccc1F)c1ccc(O)c(CCCl)c1 (10 µM) | -0.11
44 | CC(C)(C)c1csc(NC(=O)c2ccc(S(=O)(=O)C(F)F)cc2)n1 (10 µM) | -0.0473
45 | CN(C)c1ccc(C(=NC(=O)c2cccc(S(=O)(=O)N3CCCCC3)c2)c2ccc(N(C)C)cc2)cc1 (0.1 µM) | 0.12
46 | CCOC(CCl)/S(=N\S(=O)(=O)c1ccc(C)cc1)c1ccccc1[N+](=O)[O-] (stereo not drawn) (10 µM) | 0.00314
47 | Cc1cn2c(CC(=O)Nc3ccc(C(F)(F)F)cc3)csc2n1 (10 µM) | 0.0598
48 | O=C(Nc1ccc(F)cc1)c1nnc(CCl)s1 (10 µM) | 0.0617
49 | CCCCn1c(=O)[nH]c(=O)c2c1nc(CCl)n2C (10 µM) | 0.0615
50 | O=C(NCCc1nnc2ccccn12)c1ccc(-c2ccccc2F)s1 (10 µM) | -0.045
51 | COc1ccc(C)cc1NC(=O)c1ccc(-n2ccnc2)nc1 (10 µM) | 0.068
52 | Cc1ccc2sc(/C=C/c3cccnc3)nc2c1 (10 µM) | 0.0997
53 | NC(=O)Nc1cc(-c2cccc(F)c2)sc1C(=O)N[C@H]1CCCNC1 (20 µM) | 0.0649
54 | O=C(Nc1ccc(-c2nc3ccccc3[nH]2)cc1)C1CCC1 (10 µM) | 0.00263
55 | CC(=O)c1cccc(NC(=O)C(C)N(C)Cc2ccccc2N2CCCCC2)c1 (stereo not drawn) (10 µM) | 0.0271
56 | O=C(Nc1ccc(-n2ccnc2)c(F)c1)C1CC(c2ccccc2)=NO1 (stereo not drawn) (10 µM) | 0.0566
57 | Nc1nccnc1C(=O)Nc1ccc(SC2CCCC2)cc1 (1 µM) | -0.0467
58 | CNc1nc(-c2ccc3c(N)n[nH]c3c2)cc(N2C[C@@H](C(=O)NC3CCCCC3)CC[C@H]2C)n1 (20 µM) | 0.0297
59 | COC(=O)c1c(NC(=O)CCCl)sc2c1CCCC2 (10 µM) | 0.201

Row | SMILES | BRD4 median nuclear fluorescence intensity change (log2)
60 | O=C(Nc1ccc(Oc2cccc(F)c2)cc1)N1CCc2ccccc2C1 (10 µM) | 0.00187
61 | Cc1nc2ccc(C(=O)N(C)Cc3ccccc3OC(F)(F)F)cc2nc1C (10 µM) | 0.14
62 | O=C(Oc1c(CN2CCOCC2)cc(Cl)c2cccnc12)c1ccccc1 (10 µM) | -0.0344
63 | CCCCN1C(=O)C(O)(c2c(C)nn(CCO)c2N)c2ccccc21 (stereo not drawn) (1 µM) | 0.0207
64 | O=C(NCCc1cccc(Cl)c1)C1CCCN(C(=O)c2ccc(F)cc2)C1 (stereo not drawn) (10 µM) | 0.216
65 | CCn1c(=O)c2ccccc2n2c(CCl)nnc12 (10 µM) | -0.0154
66 | Cc1onc(-c2c(Cl)cccc2Cl)c1C(=O)N1CCN(c2cccc(C(F)(F)F)c2)CC1 (1 µM) | 0.0202
67 | O=C1OCC(c2ccc3c(c2)OCCCO3)=C1c1ccc(Cl)c(Cl)c1 (10 µM) | 0.0274
68 | Cn1c(=O)n(C)c2cc(NC(=O)c3ccc4cc[nH]c4c3)ccc21 (10 µM) | 0.105
69 | COc1ccc(CNC(C)c2ccc(Cl)c(Cl)c2)cc1O (stereo not drawn) (10 µM) | 0.117
70 | CCCc1cc(=O)n2nc(Br)sc2n1 (10 µM) | -0.0286
71 | Cc1nc(C)c(C(=O)NC(C)c2ccc(-c3ccccc3)cc2)s1 (stereo not drawn) (10 µM) | 0.0412
72 | Nc1nc(CCl)nc(Nc2ccc(F)cc2)n1 (10 µM) | 0.132
73 | Cc1ncc(CN2CCC(c3nc4cc(Cl)ccc4o3)CC2)s1 (1 µM) | 0.0728
74 | COc1ccc(S(=O)(=O)Nc2cccc(-n3cccn3)c2)cc1 (10 µM) | 0.196
75 | O=C(Nc1nc(-c2ccccn2)cs1)c1cncc(Br)c1 (10 µM) | -0.0952
76 | Cc1occc1C(=O)Nc1nc2ccc(S(C)(=O)=O)cc2s1 (10 µM) | -0.0753
77 | CCOc1ccccc1C1CC(=O)Nc2cc3c(cc21)OCO3 (stereo not drawn) (10 µM) | 0.0466
78 | COCc1ccc(C(=O)Nc2cc(C)ccn2)cc1 (1 µM) | -0.0153
